{"source": "PubChem BioAssay AID504784, Drosophila RNAi Screening Center | 2011", "screen": "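Fly genes whose silencing alters how much lipid cells keep in droplets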 (primary screen)", "cell system": "Drosophila Kc167 embryonic cells", "reagents": "long dsRNA against Drosophila genes, about 250 ng dsRNA per well", "timing": "4 days", "challenge": "cells fed 400 µM oleic acid bound to BSA", "measurement": "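Microscope images give a droplet-to-nucleus area ratio, taken as log and converted to a screen-wide B-score; higher values mean greater lipid storage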", "direction": "droplet/nuclear area B-score: higher = more stored lipid (overstorage)", "note": "In all, the deposit lists about 17,000 reagents; this is an unselected part of those with a known target gene and a result. 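Each column is one replicate's B-score; the combined score over replicates was not deposited, so single values may mislead.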 The numbers tell different reagents against one gene apart. Not all columns of the deposit are shown."}
{"gene": "CG43347 (GeneID 31991)", "reagent no.": 1, "droplet/nuclear area B-score, replicate 1": 1.87}
{"gene": "CG43347 (GeneID 31991)", "reagent no.": 2, "droplet/nuclear area B-score, replicate 1": -0.432}
{"gene": "CG43347 (GeneID 31991)", "reagent no.": 3, "droplet/nuclear area B-score, replicate 1": 0.0637}
{"gene": "CG43347 (GeneID 31991)", "reagent no.": 4, "droplet/nuclear area B-score, replicate 1": -1.11}
{"gene": "CG43347 (GeneID 31991)", "reagent no.": 5, "droplet/nuclear area B-score, replicate 1": 0.24}
{"gene": "CG43347 (GeneID 31991)", "reagent no.": 6, "droplet/nuclear area B-score, replicate 1": -0.0558}
{"gene": "Bace (GeneID 34182)", "reagent no.": 1, "droplet/nuclear area B-score, replicate 1": -2}
{"gene": "Atg3 (GeneID 40044)", "reagent no.": 1, "droplet/nuclear area B-score, replicate 1": 1.65}
{"gene": "Atg3 (GeneID 40044)", "reagent no.": 2, "droplet/nuclear area B-score, replicate 1": -1.08}
{"gene": "TwdlE (GeneID 34075)", "reagent no.": 1, "droplet/nuclear area B-score, replicate 1": -0.434}
{"gene": "CG9331 (GeneID 35347)", "reagent no.": 1, "droplet/nuclear area B-score, replicate 1": -2.08}
{"gene": "CG34435 (GeneID 31471)", "reagent no.": 1, "droplet/nuclear area B-score, replicate 1": -0.0488}
{"gene": "CG13036 (retired record) (GeneID 39823)", "reagent no.": 1, "droplet/nuclear area B-score, replicate 1": -0.207}
{"gene": "BORCS6 (GeneID 38068)", "reagent no.": 1, "droplet/nuclear area B-score, replicate 1": 1.33}
{"gene": "CG12551 (retired record) (GeneID 35518)", "reagent no.": 1, "droplet/nuclear area B-score, replicate 1": -2.57}
{"gene": "CG12551 (retired record) (GeneID 35518)", "reagent no.": 2, "droplet/nuclear area B-score, replicate 1": -2.8}
{"gene": "ckn (GeneID 36673)", "reagent no.": 1, "droplet/nuclear area B-score, replicate 1": 0.298}
{"gene": "CG6770 (GeneID 34621)", "reagent no.": 1, "droplet/nuclear area B-score, replicate 1": 5.18}

Entries above whose target name starts with A or a (2):
{"gene": "Atg3 (GeneID 40044)", "reagent no.": 1, "droplet/nuclear area B-score, replicate 1": 1.65}
{"gene": "Atg3 (GeneID 40044)", "reagent no.": 2, "droplet/nuclear area B-score, replicate 1": -1.08}

The list goes on:
{"gene": "Or65b (GeneID 318012)", "reagent no.": 1, "droplet/nuclear area B-score, replicate 1": 2.57}
{"gene": "spirit (GeneID 31797)", "reagent no.": 1, "droplet/nuclear area B-score, replicate 1": 0.55}
{"gene": "CG11630 (GeneID 35429)", "reagent no.": 1, "droplet/nuclear area B-score, replicate 1": -1.47}
{"gene": "Ugt37B1 (GeneID 53584)", "reagent no.": 1, "droplet/nuclear area B-score, replicate 1": -0.328}
{"gene": "CG15739 (GeneID 32146)", "reagent no.": 1, "droplet/nuclear area B-score, replicate 1": 1.2}
{"gene": "CG8176 (GeneID 261329)", "reagent no.": 1, "droplet/nuclear area B-score, replicate 1": -0.0591}
{"gene": "Mef2 (GeneID 36032)", "reagent no.": 1, "droplet/nuclear area B-score, replicate 1": 0.0221}
{"gene": "CG9775 (GeneID 40576)", "reagent no.": 1, "droplet/nuclear area B-score, replicate 1": 3.37}
{"gene": "CG9775 (GeneID 40576)", "reagent no.": 2, "droplet/nuclear area B-score, replicate 1": 1.41}
